Test results published in the supplement of paper PMC12819154, “High-throughput peptide-centric local stability assay extends protein–ligand identification to membrane proteins, tissues and bacteria” (Nature Structural & Molecular Biology, 2025).
The list shows a part of the results. Small differences around the control level are noise.

By UniProt entry, the sequences of proteins in these tests, tags left out. Where a name states a change or a piece, a line headed by the entry shows the natural chain unless it says otherwise.
UniProt Q9Y520: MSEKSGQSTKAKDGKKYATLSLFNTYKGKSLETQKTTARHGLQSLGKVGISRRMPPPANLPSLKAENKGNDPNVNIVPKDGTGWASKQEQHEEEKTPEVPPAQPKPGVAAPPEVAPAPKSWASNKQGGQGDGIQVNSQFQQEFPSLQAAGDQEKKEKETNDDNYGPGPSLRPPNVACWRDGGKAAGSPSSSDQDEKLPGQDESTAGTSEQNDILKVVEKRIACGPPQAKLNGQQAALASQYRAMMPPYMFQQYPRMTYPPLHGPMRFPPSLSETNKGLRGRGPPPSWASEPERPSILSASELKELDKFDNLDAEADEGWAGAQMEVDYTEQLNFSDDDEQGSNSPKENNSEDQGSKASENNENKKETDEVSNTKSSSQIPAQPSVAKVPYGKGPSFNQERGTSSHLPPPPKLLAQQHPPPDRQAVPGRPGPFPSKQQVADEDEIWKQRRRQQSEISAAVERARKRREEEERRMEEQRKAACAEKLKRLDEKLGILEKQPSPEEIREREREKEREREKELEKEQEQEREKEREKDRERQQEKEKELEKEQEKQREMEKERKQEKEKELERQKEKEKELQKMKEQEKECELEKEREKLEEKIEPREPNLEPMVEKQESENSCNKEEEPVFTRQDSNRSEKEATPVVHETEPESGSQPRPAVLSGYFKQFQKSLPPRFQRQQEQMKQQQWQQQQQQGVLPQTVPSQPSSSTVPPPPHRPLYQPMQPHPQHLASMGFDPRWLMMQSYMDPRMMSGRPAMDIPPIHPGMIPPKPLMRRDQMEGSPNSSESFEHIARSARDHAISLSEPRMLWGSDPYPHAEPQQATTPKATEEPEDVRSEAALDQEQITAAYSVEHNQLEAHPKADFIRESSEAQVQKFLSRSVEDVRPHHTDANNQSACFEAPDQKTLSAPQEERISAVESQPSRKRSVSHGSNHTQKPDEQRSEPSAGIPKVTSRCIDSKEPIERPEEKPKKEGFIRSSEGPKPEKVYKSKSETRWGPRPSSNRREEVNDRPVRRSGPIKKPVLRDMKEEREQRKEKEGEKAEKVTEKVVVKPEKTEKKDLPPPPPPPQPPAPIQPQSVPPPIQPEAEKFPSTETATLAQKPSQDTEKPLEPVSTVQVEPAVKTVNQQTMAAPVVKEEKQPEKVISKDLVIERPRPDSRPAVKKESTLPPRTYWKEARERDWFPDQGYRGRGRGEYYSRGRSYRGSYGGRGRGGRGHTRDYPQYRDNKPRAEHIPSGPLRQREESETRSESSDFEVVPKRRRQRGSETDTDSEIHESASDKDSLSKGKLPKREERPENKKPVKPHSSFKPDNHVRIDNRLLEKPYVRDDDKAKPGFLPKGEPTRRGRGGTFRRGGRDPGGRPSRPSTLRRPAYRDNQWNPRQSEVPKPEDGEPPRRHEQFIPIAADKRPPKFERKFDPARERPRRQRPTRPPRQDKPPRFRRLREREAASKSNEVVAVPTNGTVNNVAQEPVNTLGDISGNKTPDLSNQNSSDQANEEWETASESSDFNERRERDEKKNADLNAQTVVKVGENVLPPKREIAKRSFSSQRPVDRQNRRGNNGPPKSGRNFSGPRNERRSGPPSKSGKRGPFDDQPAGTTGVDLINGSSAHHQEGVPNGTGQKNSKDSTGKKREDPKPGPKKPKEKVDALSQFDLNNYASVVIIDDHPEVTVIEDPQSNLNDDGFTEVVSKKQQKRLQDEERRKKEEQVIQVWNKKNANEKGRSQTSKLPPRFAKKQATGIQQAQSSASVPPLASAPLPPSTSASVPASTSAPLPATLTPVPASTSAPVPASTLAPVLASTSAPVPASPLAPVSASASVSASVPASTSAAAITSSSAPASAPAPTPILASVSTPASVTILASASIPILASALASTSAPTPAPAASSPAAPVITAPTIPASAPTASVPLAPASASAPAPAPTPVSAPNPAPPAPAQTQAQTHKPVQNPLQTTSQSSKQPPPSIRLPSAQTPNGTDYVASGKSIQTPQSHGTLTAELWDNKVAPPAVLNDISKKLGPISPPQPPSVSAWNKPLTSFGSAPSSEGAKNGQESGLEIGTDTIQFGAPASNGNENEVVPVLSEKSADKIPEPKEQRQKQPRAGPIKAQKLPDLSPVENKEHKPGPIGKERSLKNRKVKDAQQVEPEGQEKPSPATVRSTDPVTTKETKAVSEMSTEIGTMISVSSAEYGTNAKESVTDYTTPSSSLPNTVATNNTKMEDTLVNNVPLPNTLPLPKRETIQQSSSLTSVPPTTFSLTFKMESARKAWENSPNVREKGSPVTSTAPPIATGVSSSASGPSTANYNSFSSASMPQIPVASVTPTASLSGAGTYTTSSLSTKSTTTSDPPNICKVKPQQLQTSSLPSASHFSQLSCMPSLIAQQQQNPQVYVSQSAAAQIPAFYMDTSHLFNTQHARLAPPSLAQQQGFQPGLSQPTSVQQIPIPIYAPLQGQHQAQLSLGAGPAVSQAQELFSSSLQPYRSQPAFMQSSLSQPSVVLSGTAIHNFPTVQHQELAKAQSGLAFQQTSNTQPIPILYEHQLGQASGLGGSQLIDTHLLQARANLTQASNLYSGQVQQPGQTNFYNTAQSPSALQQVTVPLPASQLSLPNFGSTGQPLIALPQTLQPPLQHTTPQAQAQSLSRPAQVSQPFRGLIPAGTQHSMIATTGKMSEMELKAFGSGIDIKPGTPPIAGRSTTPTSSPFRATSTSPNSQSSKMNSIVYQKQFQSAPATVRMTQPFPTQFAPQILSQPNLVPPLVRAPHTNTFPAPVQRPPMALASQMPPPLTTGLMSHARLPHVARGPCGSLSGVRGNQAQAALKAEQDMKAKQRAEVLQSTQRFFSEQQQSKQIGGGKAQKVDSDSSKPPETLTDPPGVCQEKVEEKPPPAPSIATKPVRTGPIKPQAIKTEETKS
UniProt Q9Y4C8: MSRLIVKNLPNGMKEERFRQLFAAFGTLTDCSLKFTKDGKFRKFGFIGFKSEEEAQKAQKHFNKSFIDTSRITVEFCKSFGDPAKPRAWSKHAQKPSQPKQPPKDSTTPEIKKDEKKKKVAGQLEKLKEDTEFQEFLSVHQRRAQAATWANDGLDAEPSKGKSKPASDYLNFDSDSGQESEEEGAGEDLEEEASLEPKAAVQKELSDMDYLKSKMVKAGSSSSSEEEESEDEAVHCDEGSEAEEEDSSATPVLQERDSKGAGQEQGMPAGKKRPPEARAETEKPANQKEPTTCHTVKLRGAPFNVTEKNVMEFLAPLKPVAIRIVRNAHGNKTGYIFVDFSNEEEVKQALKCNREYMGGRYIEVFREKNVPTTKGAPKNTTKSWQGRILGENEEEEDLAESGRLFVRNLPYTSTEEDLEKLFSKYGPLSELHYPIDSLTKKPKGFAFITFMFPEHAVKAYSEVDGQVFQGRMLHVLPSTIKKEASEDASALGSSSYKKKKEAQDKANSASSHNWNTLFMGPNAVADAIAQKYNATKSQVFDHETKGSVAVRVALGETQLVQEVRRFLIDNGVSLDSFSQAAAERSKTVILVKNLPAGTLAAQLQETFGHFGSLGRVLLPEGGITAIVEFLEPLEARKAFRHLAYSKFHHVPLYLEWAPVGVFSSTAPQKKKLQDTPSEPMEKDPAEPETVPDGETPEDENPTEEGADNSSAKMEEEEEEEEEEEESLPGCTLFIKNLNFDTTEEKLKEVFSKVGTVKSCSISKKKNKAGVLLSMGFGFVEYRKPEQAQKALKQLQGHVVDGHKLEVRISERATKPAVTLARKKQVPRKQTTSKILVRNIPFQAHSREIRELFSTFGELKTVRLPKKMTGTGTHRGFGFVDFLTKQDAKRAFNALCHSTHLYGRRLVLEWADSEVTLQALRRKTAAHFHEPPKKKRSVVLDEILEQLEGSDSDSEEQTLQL
UniProt Q9Y3C6: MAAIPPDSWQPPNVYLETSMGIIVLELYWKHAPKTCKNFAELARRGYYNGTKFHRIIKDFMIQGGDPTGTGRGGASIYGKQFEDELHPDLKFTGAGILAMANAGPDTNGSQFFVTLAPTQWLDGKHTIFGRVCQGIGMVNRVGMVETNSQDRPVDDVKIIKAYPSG
UniProt Q9Y6W6: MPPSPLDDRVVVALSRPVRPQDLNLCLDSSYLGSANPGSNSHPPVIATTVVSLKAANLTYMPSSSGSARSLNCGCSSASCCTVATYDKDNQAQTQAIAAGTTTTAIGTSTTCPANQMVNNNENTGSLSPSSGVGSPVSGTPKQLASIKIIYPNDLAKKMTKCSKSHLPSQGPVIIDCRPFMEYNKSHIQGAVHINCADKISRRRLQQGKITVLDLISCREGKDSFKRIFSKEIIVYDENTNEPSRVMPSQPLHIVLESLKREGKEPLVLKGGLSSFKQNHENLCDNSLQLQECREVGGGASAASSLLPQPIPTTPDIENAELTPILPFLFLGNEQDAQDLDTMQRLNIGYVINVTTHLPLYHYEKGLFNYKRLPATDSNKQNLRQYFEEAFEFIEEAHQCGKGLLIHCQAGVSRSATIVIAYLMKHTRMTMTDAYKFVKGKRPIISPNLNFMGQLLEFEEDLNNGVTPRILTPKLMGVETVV
UniProt Q9Y4Z0: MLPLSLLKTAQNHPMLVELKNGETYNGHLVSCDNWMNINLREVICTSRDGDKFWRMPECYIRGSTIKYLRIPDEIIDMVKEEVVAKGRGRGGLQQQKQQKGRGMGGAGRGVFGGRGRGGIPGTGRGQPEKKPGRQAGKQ
UniProt Q9Y575: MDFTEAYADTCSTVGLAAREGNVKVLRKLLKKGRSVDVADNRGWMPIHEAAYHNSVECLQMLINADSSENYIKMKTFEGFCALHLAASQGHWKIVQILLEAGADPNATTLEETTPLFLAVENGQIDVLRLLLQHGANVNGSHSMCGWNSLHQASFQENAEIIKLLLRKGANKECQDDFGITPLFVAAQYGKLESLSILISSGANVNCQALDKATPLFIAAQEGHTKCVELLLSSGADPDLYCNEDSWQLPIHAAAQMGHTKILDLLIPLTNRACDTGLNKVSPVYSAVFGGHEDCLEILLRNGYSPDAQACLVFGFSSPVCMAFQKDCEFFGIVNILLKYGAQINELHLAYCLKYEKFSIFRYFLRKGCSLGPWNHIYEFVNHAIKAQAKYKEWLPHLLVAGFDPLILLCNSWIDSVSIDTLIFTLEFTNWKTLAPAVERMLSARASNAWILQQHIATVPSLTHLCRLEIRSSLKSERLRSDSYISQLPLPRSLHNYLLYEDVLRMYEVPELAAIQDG
UniProt Q9Y3C7: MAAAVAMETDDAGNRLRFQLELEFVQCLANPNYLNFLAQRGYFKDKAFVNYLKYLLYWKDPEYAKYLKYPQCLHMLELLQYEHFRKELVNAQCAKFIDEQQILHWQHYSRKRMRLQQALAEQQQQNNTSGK
UniProt Q9Y605: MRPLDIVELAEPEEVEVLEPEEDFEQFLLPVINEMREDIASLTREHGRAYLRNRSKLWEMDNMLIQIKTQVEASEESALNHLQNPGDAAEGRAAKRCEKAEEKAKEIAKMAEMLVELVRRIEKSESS
UniProt Q9Y613: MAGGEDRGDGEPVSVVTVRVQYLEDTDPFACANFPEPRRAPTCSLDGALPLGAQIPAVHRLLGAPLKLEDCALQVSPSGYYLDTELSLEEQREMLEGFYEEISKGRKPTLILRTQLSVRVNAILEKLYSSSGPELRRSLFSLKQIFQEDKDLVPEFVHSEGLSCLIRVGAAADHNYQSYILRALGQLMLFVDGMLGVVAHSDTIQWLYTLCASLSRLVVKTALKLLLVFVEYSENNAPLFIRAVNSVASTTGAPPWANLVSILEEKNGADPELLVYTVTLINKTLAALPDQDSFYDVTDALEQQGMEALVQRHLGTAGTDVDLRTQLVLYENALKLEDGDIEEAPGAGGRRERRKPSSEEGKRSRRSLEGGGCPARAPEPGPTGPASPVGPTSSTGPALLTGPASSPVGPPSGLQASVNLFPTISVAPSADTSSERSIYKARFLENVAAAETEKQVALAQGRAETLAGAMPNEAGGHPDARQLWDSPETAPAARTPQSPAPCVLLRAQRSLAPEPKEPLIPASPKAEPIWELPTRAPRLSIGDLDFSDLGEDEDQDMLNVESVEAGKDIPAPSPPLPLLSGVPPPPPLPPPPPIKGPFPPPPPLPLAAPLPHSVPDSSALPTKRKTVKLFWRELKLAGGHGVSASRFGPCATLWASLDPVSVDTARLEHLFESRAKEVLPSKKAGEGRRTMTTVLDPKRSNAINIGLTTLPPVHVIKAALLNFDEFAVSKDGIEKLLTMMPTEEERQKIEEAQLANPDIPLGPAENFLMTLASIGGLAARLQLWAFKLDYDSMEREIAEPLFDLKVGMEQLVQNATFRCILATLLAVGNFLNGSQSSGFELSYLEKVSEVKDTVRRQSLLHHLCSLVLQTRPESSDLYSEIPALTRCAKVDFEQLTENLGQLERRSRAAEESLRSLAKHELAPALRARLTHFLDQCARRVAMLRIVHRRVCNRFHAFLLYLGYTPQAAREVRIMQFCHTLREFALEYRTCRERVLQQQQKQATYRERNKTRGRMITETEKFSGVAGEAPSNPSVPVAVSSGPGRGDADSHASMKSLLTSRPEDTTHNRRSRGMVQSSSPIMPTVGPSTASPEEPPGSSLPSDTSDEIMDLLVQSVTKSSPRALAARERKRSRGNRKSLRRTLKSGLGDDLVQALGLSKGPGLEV

compound: CN[C@@H]1C[C@H]2O[C@@](C)([C@@H]1OC)n1c3ccccc3c3c4c(c5c6ccccc6n2c5c31)C(=O)NC4 [staurosporine]; test: log2 fold change of tryptic peptide abundance, ligand vs vehicle (limited proteolysis) (log2 ratio); higher = more trypsin-susceptible (destabilized); conditions: ligand concentration: 20 uM; sample: K562 cleared lysate; digestion: 4 min, 22 C (HT-PELSA RT4min, Orbitrap Astral)

Target | log2 fold change
SESN1 (peptide sequence: TVVCTPEKVTK, peptide start residue: 439) (UniProt Q9Y6P5) | 0.531
SAMHD1 (peptide sequence: REDYESLPK, peptide start residue: 470) (UniProt Q9Y3Z3) | 0.39
UniProt Q9Y4A0 (peptide sequence: AVLLLDNSPTHPNENVLR, peptide start residue: 287) | -0.0159
IGF2BP2 (peptide sequence: MVIITGPPEAQFK, peptide start residue: 453) (UniProt Q9Y6M1) | -0.161
GPSM3 (peptide sequence: SRPPTHTC, peptide start residue: 153) (UniProt Q9Y4H4) | 0.224
WNK2 (peptide sequence: KGTFTDDLHK, peptide start residue: 2243) (UniProt Q9Y3S1) | 0.155
UniProt Q9Y520 (peptide sequence: TVNQQTMAAPVVK, peptide start residue: 1121) | 0.404
RAD54B (peptide sequence: RSAAPSQLQGNSFK, peptide start residue: 3) (UniProt Q9Y620) | -0.567
RBM19 (peptide sequence: ELFSTFGELK, peptide start residue: 850) (UniProt Q9Y4C8) | -0.304
MTF2 (peptide sequence: DSTGAGNSLVHK, peptide start residue: 3) (UniProt Q9Y483) | 0.477
IRS2 (peptide sequence: RVSGDAAQDLDR, peptide start residue: 558) (UniProt Q9Y4H2) | -0.978
SNX13 (peptide sequence: LLAIMPDELK, peptide start residue: 881) (UniProt Q9Y5W8) | 0.201
UniProt Q9Y678 (peptide sequence: VVVVQAISALCQKYPR, peptide start residue: 377) | 0.35
RNF115 (peptide sequence: FSNDSQLHDRWTF, peptide start residue: 292) (UniProt Q9Y4L5) | -0.317
CHCHD2 (peptide sequence: AAPRPAPVAQPPAAAPPSAVGSSAAAPR, peptide start residue: 24) (UniProt Q9Y6H1) | -0.0183
UniProt Q9Y3D0 (peptide sequence: EIFDLIR, peptide start residue: 45) | -0.0798
TLN1 (peptide sequence: KIFQAHK, peptide start residue: 278) (UniProt Q9Y490) | 0.41
TRAF6 (peptide sequence: GFGYVTFMHLEALR, peptide start residue: 470) (UniProt Q9Y4K3) | 0.199
MRPS16 (peptide sequence: EVLLASQK, peptide start residue: 117) (UniProt Q9Y3D3) | 0.0945
UniProt Q9Y6D0 (peptide sequence: YDDGRGPPGNPPR, peptide start residue: 60) | 0.526

Target | log2 fold change
PPIL1 (peptide sequence: VGMVETNSQDRPVDDVK, peptide start residue: 142) (UniProt Q9Y3C6) | -0.609
MORC2 (peptide sequence: VPLGTFRK, peptide start residue: 545) (UniProt Q9Y6X9) | -0.692
RRP15 (peptide sequence: GMDGSTNETASSR, peptide start residue: 216) (UniProt Q9Y3B9) | -0.101
NUBP2 (peptide sequence: ELTFCRK, peptide start residue: 173) (UniProt Q9Y5Y2) | -0.188
TSC22D4 (peptide sequence: PSSPALYFTHDASLVHK, peptide start residue: 262) (UniProt Q9Y3Q8) | -0.424
UniProt Q9Y6W6 (peptide sequence: ITVLDLISCR, peptide start residue: 210) | -0.289
UniProt Q9Y4D8 (peptide sequence: AILSCGYDLHFER, peptide start residue: 3431) | -0.728
HYOU1 (peptide sequence: RPLKNDEL, peptide start residue: 992) (UniProt Q9Y4L1) | -0.104
CAPN7 (peptide sequence: VQALHSAVQSK, peptide start residue: 64) (UniProt Q9Y6W3) | 0.469
ATP6V1D (peptide sequence: EREEFYR, peptide start residue: 195) (UniProt Q9Y5K8) | 0.327
SNX9 (peptide sequence: RCTGPLPK, peptide start residue: 426) (UniProt Q9Y5X1) | 0.385
WASF2 (peptide sequence: DVVGNDVATILSR, peptide start residue: 463) (UniProt Q9Y6W5) | -0.345
LSM4 (peptide sequence: IPDEIIDMVKEEVVAK, peptide start residue: 71) (UniProt Q9Y4Z0) | 0.175
ASB3 (peptide sequence: ILDLLIPLTNR, peptide start residue: 262) (UniProt Q9Y575) | -0.276
MED31 (peptide sequence: FIDEQQILHWQHYSR, peptide start residue: 96) (UniProt Q9Y3C7) | 0.159
MRFAP1 (peptide sequence: MAEMLVELVR, peptide start residue: 110) (UniProt Q9Y605) | 0.0867
FHOD1 (peptide sequence: VDFEQLTENLGQLERR, peptide start residue: 890) (UniProt Q9Y613) | -0.257
UniProt Q9Y4B6 (peptide sequence: RKLPQNPK, peptide start residue: 709) | 0.412
MRPS18B (peptide sequence: RLYQGHLQEESGPPPESMPK, peptide start residue: 218) (UniProt Q9Y676) | -0.52

Quoted at random: 2 entries already listed
Target | log2 fold change
WASF2 (peptide sequence: DVVGNDVATILSR, peptide start residue: 463) (UniProt Q9Y6W5) | -0.345
UniProt Q9Y4B6 (peptide sequence: RKLPQNPK, peptide start residue: 709) | 0.412
